The other results are listed elsewhere or left out.
What was measured:
Experiment in all cases: glycan array binding signal (z-score within array); higher = stronger binding
Details in all cases: glycan notation: IUPAC condensed, linker removed
[1] = biological target: Gal6S(b1-4)Glc6S
How it was run: (§1)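 Glycan array data were curated from 3228 arrays in the Consortium for Functional Glycomics database and kept only where the protein sequence was available. Glycan names were converted to IUPAC-condensed notation, and columns mapping to the same glycan were averaged. The binding signal is a within-array Z-score, averaged across arrays of the same protein sequence at different concentrations or buffers and across linkers. Negative Z-scores can be read as non-binding.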

[2] = biological target: Gal6S(b1-4)GlcNAc
How it was run: as §1

[3] = biological target: Gal6S(b1-4)GlcNAc6S
How it was run: as §1

[4] = biological target: GalNAc(a1-3)Gal
How it was run: as §1

[5] = biological target: GalNAc(a1-3)GalNAc
How it was run: as §1

[6] = biological target: GalNAc(a1-3)GalNAc(b1-3)Gal(a1-4)Gal(b1-4)Glc
How it was run: as §1

[7] = biological target: GalNAc(a1-3)GalNAc(b1-3)Gal(a1-4)Gal(b1-4)GlcNAc
How it was run: as §1

[8] = biological target: GalNAc(b1-3)Gal
How it was run: as §1

[9] = biological target: GalNAc(b1-3)Gal(a1-4)Gal(b1-4)GlcNAc
How it was run: as §1

[10] = biological target: GalNAc(b1-3)Gal(a1-4)Gal(b1-4)GlcNAc(b1-3)Gal(b1-4)Glc
How it was run: as §1

[11] = biological target: GalNAc(b1-3)Gal(a1-6)Gal(b1-4)Glc
How it was run: as §1

[12] = biological target: GalNAc(b1-3)GalNAc
How it was run: as §1

[13] = biological target: GalNAc(b1-3)GlcNAc
How it was run: as §1

[14] = biological target: GalNAc(b1-4)Gal(b1-4)Glc
How it was run: as §1

[15] = biological target: GalNAc(b1-4)GlcNAc
How it was run: as §1

[16] = biological target: GalNAc(b1-4)GlcNAc(b1-2)Man
How it was run: as §1

[17] = biological target: GalNAc(b1-4)GlcNAc(b1-2)Man(a1-3)[GalNAc(b1-4)GlcNAc(b1-2)Man(a1-6)]Man(b1-4)GlcNAc(b1-4)GlcNAc
How it was run: as §1

[18] = biological target: GalNAc(b1-4)GlcNAc(b1-3)GalNAc(b1-4)GlcNAc
How it was run: as §1

[19] = biological target: GalNAc(b1-4)GlcNAc6S
How it was run: as §1

[20] = biological target: GalNAc(b1-6)GalNAc
How it was run: as §1

[21] = biological target: GalNAc3S(b1-4)GlcNAc
How it was run: as §1

[22] = biological target: GalNAc3S(b1-4)GlcNAc3S
How it was run: as §1

[23] = biological target: GalNAc3S(b1-4)[Fuc(a1-3)]GlcNAc
How it was run: as §1

[24] = biological target: GalNAc4S6S(b1-4)GlcNAc
How it was run: as §1

[25] = biological target: GalNAc6S(b1-4)GlcNAc
How it was run: as §1

[26] = biological target: Glc(a1-4)Glc
How it was run: as §1

[27] = biological target: Glc(a1-4)Glc(a1-4)Glc(a1-4)Glc
How it was run: as §1

[28] = biological target: Glc(a1-6)Glc(a1-6)Glc
How it was run: as §1

[29] = biological target: Glc(a1-6)Glc(a1-6)Glc(a1-6)Glc
How it was run: as §1

[30] = biological target: Glc(b1-4)Glc
How it was run: as §1

[31] = biological target: Glc(b1-6)Glc
How it was run: as §1

[32] = biological target: GlcA(b1-3)Gal
How it was run: as §1

[33] = biological target: GlcA(b1-3)GlcNAc
How it was run: as §1

[34] = biological target: GlcA(b1-6)Gal
How it was run: as §1

[35] = biological target: GlcA3S(b1-3)Gal(b1-4)GlcNAc(b1-2)Man
How it was run: as §1

[36] = biological target: GlcA3S(b1-3)Gal(b1-4)GlcNAc(b1-3)Gal(b1-4)Glc
How it was run: as §1

[37] = biological target: GlcNAc(a1-3)Gal(b1-4)GlcNAc
How it was run: as §1

[38] = biological target: GlcNAc(a1-4)Gal(b1-3)GlcNAc
How it was run: as §1

[39] = biological target: GlcNAc(a1-4)Gal(b1-4)GalNAc
How it was run: as §1

[40] = biological target: GlcNAc(a1-4)Gal(b1-4)GlcNAc
How it was run: as §1

[41] = biological target: GlcNAc(a1-4)Gal(b1-4)GlcNAc(b1-3)Gal(b1-4)Glc
How it was run: as §1

[42] = biological target: GlcNAc(a1-4)Gal(b1-4)GlcNAc(b1-3)Gal(b1-4)GlcNAc
How it was run: as §1

[43] = biological target: GlcNAc(a1-4)Gal(b1-4)GlcNAc(b1-3)Gal(b1-4)GlcNAc(b1-3)Gal(b1-4)GlcNAc
How it was run: as §1

[44] = biological target: GlcNAc(a1-4)Gal(b1-4)GlcNAc(b1-3)Gal(b1-4)[Fuc(a1-3)]GlcNAc(b1-3)Gal(b1-4)[Fuc(a1-3)]GlcNAc
How it was run: as §1

[45] = biological target: GlcNAc(a1-6)Gal(b1-4)GlcNAc
How it was run: as §1

B1: Pwp1 (Candida glabrata) (protein)
chain: MGSSHHHHHHSSGLVPRGSHMASANPISITNVCQFPDNWARTAGFQATTVRLGLTIASNTYKELLNYPGLFNFATQKATVTQPNFSISGFPFFTGLYGLTVWPINLLVELQGYFVPPESGNYTFTLQGSDDAAILFFANPSTFACGSQNDWPQPREADITVTDTLVPSRTLYLVKGVAYPIRIAYYNGSGDGKLNVSFKDPSGTTHTDWKGYVWQYSNTCSTCTYT
B1 was tested, and the “glycan array binding signal (z-score)” value [1] was 1.28, the “glycan array binding signal (z-score)” value [2] was -0.434 and the “glycan array binding signal (z-score)” value [3] was -0.888. For the same binder, the “glycan array binding signal (z-score)” value [4] was 1.19, the “glycan array binding signal (z-score)” value [5] was -0.072 and the “glycan array binding signal (z-score)” value [6] was 0.022. For the same binder, the “glycan array binding signal (z-score)” value [7] was -0.037, the “glycan array binding signal (z-score)” value [8] was 0.709 and the “glycan array binding signal (z-score)” value [9] was 1.43. For the same binder, the “glycan array binding signal (z-score)” value [10] was 1.77, the “glycan array binding signal (z-score)” value [11] was 1.15 and the “glycan array binding signal (z-score)” value [12] was -0.85. For the same binder, the “glycan array binding signal (z-score)” value [13] was 0.541, the “glycan array binding signal (z-score)” value [14] was 0.092 and the “glycan array binding signal (z-score)” value [15] was 1.03. For the same binder, the “glycan array binding signal (z-score)” value [16] was -0.855, the “glycan array binding signal (z-score)” value [17] was 0.543 and the “glycan array binding signal (z-score)” value [18] was 1.1. For the same binder, the “glycan array binding signal (z-score)” value [19] was 1.38, the “glycan array binding signal (z-score)” value [20] was -0.226 and the “glycan array binding signal (z-score)” value [21] was -1.06. The “glycan array binding signal (z-score)” value [22] was 0.192, the “glycan array binding signal (z-score)” value [23] was -0.41 and the “glycan array binding signal (z-score)” value [24] was 0.907. For the same binder, the “glycan array binding signal (z-score)” value [25] was 0.324, the “glycan array binding signal (z-score)” value [26] was -0.151 and the “glycan array binding signal (z-score)” value [27] was 0.015. The “glycan array binding signal (z-score)” value [28] was 1.17, the “glycan array binding signal (z-score)” value [29] was -1.11 and the “glycan array binding signal (z-score)” value [30] was 0.697. The “glycan array binding signal (z-score)” value [31] was 0.88, the “glycan array binding signal (z-score)” value [32] was 0.22 and the “glycan array binding signal (z-score)” value [33] was -1.31. The “glycan array binding signal (z-score)” value [34] was -0.201, the “glycan array binding signal (z-score)” value [35] was 0.682 and the “glycan array binding signal (z-score)” value [36] was -0.393. The “glycan array binding signal (z-score)” value [37] was 0.126, the “glycan array binding signal (z-score)” value [38] was -0.206 and the “glycan array binding signal (z-score)” value [39] was -1.74. The “glycan array binding signal (z-score)” value [40] was 0.326, the “glycan array binding signal (z-score)” value [41] was 1.72 and the “glycan array binding signal (z-score)” value [42] was -0.537. For the same binder, the “glycan array binding signal (z-score)” value [43] was 0.377, the “glycan array binding signal (z-score)” value [44] was 1.32 and the “glycan array binding signal (z-score)” value [45] was 0.058.

Source: the supplement of paper PMC8728848
